Assay [1] has as its target GFP::Flfl (Drosophila melanogaster) (UniProt Q9VFS5). In words: co-IP; GFP-Trap beads; D.Mel-2 cells expressing FLAG::CENP-C (WT or ΔFIM) transiently co-transfected with GFP-tagged Flfl forms; immunoblot.
Assay [2] concerns the target GST-tagged Flfl^C (aa 667–973) (Drosophila melanogaster) (UniProt Q9VFS5). In words: pull-down; GST-tagged bait on Glutathione Sepharose 4b, IVTT 35S-Met-labelled prey, 1 h 25 °C, 50 mM HEPES pH 7.4, 150 mM NaCl, 0.1% Triton X-100, 0.5 mg/ml BSA; autoradiography; only the target purified.

Amino acid sequences for entries named in this document (tags omitted). A change or cut given only in a name is not applied to a line headed by its entry.
UniProt Q9VFS5: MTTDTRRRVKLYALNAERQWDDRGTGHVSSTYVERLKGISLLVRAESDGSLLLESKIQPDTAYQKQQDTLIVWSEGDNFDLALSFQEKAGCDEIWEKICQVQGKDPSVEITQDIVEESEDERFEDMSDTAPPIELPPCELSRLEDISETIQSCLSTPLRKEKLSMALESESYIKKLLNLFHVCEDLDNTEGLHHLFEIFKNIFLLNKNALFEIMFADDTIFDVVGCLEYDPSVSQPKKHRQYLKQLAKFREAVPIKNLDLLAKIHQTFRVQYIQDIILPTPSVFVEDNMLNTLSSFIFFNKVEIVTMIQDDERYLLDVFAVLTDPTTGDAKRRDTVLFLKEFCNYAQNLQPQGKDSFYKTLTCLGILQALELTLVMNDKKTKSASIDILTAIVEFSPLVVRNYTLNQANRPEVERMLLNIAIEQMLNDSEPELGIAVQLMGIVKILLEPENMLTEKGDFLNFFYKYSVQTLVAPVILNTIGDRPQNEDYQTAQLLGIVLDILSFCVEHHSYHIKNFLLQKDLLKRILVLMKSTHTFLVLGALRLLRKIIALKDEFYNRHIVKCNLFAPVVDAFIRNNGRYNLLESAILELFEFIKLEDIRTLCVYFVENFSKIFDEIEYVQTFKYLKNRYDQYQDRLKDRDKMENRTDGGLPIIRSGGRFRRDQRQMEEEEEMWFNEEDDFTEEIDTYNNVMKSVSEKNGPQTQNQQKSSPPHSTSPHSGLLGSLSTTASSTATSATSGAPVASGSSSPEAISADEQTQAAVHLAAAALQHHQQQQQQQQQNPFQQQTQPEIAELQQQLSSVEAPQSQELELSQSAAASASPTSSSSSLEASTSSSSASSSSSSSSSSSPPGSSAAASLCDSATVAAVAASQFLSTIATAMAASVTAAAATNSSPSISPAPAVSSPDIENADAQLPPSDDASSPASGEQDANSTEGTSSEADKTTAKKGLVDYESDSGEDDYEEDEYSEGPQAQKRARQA

The results in this text go back to PMC4354016, “Centromeric binding and activity of Protein Phosphatase 4” (Nature Communications, 2015).

Results are given in words; binding and its absence hold for the method and conditions named. In cells and extracts the contact can be indirect. For part of these data: Binding can be weak; no strength is given. For part of these data: Tags and fused reporters may be left off the sequences shown.

B1: FLAG::CENP-C^ΔFIM (protein, UniProt Q9VHP9)
chain: MSKPQNNDTLELDDILSQPVKDKERFAAFMMRKLAENKPAQNDNLFGNFKLDFDLDFEVPLIKKSQAKPKSKLPEVQPLGELVSKNSAATEKVNEPPVDQAPNENVPPRRSPTLSPNNRRSMRRSGNVPGSDKLRRHAIRRRSRSCGRQLLPEFEETVNLTRSISSPVNFLPEISSTPCTEKQKEEVAKNTTRVETDKPAEKPMELSQEPEPENPLQTKVTSPARNPILAAEIEQICKERQSSFHKNVLQLDYSGRAPYSRPPTPSSPSVAGLRRTYTMEKGPAPGQLLLSPSHRYDTPSKMPVVKAKRFNQELMVPDTPERQSHDPAWQSEPQPEFVVPETQPQDLGELVQTLSRSAISPIVVINTSNSNRSVRRDAVAMKSVPTSPVTALSSPPIAPSPRRSAAASPQKSIAQLPRVEENMDAIMTDDESDEHPSTVPLNLAPSGGNTTRQRRLRSSNRARATIESQESSMRLLNLHKSVNAKKSKPRKTAIPLNKAPSAPINGEQFARELTRMSNYEILDLRKRNSLNEIYPLNGHRNHRSEKLILEEEIQRELLRRNLMDEAEGLPKQQSSDDSNEDYIPVPPKTQSLRTKSNDRSQGRGRPRSTRRDLPMTTELVNYLGLSQTLETRRKSSKDGKRCLYTKGSSDHEDNDSLSPVKLPRLSKSIQIVPPPPVSLRYSQSLQNLPCSGKFDFDNVVMAAPPDFHDSVNSDAIEIAPPPPEYVVNTRGRSTSGRKSNKNDLVLPPPGYEGGQEEEHDERPSQPRCTAKELQQSTQNGRRAMENELVPPPIEYVEEENRNNEQSRRSTKNGNLVDRNTHNAVEYCEPPEPPEYDDSDHGQASILRRSGKKLQHSKQSVQKSNKEQIIAPSYENNEDYDSDEEPIYNEEYGKEESQNKNVTRRKSDKDEMASHTLECIEGPDPNWNSSCNKQNRNHQNASKSKENDKLANRSSKSQKLSNPRQNAVGTEKSVALSNRGEECTEKSSDVMESLRVNTPTPPIDQNSDDVPSRNPSPSRTLLSDDVPSTSRAALEFLQRSQNMSKSRPAKSKKGKSEVDKLKLAKMPVEAEELNTTGIRRSKRGQVPLQMSWCHTMDPSKFNFMSGFIEPRSKNSKTKKGNLSKAKKASATKPKPTVEKNLPDNRGPLCSSTPRISEKLPGAIPHSESLGLSTLTWEETEVQAEAEKVPKKRGRPKKAVGGVQTDTEAEPEPEPEPMISSVAPLTSDQEEPDVPDEQAPYTEAALGPVVFSTPLRDEQEEASTKLMQWLRGVGDAPPSASMSDENASVSSANELIFCQVDGIDYAFYNTKEKAMLGYMRFKPYQKRSMKQAKVHPLKLLVQFGEFNVETLAVGEEKEVHSVLRVGDMIEIDRGTRYSIQNAIDKVSVLMCIRS
On to B1, for which the binding result in assay [1] is on record as “no binding”.

B2: FLAG::CENP-C^WT (protein, UniProt Q9VHP9 1-1411)
chain: MSKPQNNDTLELDDILSQPVKDKERFAAFMMRKLAENKPAQNDNLFGNFKLDFDLDFEVPLIKKSQAKPKSKLPEVQPLGELVSKNSAATEKVNEPPVDQAPNENVPPRRSPTLSPNNRRSMRRSGNVPGSDKLRRHAIRRRSRSCGRQLLPEFEETVNLTRSISSPVNFLPEISSTPCTEKQKEEVAKNTTRVETDKPAEKPMELSQEPEPENPLQTKVTSPARNPILAAEIEQICKERQSSFHKNVLQLDYSGRAPYSRPPTPSSPSVAGLRRTYTMEKGPAPGQLLLSPSHRYDTPSKMPVVKAKRFNQELMVPDTPERQSHDPAWQSEPQPEFVVPETQPQDLGELVQTLSRSAISPIVVINTSNSNRSVRRDAVAMKSVPTSPVTALSSPPIAPSPRRSAAASPQKSIAQLPRVEENMDAIMTDDESDEHPSTVPLNLAPSGGNTTRQRRLRSSNRARATIESQESSMRLLNLHKSVNAKKSKPRKTAIPLNKAPSAPINGEQFARELTRMSNYEILDLRKRNSLNEIYPLNGHRNHRSEKLILEEEIQRELLRRNLMDEAEGLPKQQSSDDSNEDYIPVPPKTQSLRTKSNDRSQGRGRPRSTRRDLPMTTELVNYLGLSQTLETRRKSSKDGKRCLYTKGSSDHEDNDSLSPVKLPRLSKSIQIVPPPPVSLRYSQSLQNLPCSGKFDFDNVVMAAPPDFHDSVNSDAIEIAPPPPEYVVNTRGRSTSGRKSNKNDLVLPPPGYEGGQEEEHDERPSQPRCTAKELQQSTQNGRRAMENELVPPPIEYVEEENRNNEQSRRSTKNGNLVDRNTHNAVEYCEPPEPPEYDDSDHGQASILRRSGKKLQHSKQSVQKSNKEQIIAPSYENNEDYDSDEEPIYNEEYGKEESQNKNVTRRKSDKDEMASHTLECIEGPDPNWNSSCNKQNRNHQNASKSKENDKLANRSSKSQKLSNPRQNAVGTEKSVALSNRGEECTEKSSDVMESLRVNTPTPPIDQNSDDVPSRNPSPSRTLLSDDVPSTSRAALEFLQRSQNMSKSRPPDESSADVVFKKPLAPAPRAKSKKGKSEVDKLKLAKMPVEAEELNTTGIRRSKRGQVPLQMSWCHTMDPSKFNFMSGFIEPRSKNSKTKKGNLSKAKKASATKPKPTVEKNLPDNRGPLCSSTPRISEKLPGAIPHSESLGLSTLTWEETEVQAEAEKVPKKRGRPKKAVGGVQTDTEAEPEPEPEPMISSVAPLTSDQEEPDVPDEQAPYTEAALGPVVFSTPLRDEQEEASTKLMQWLRGVGDAPPSASMSDENASVSSANELIFCQVDGIDYAFYNTKEKAMLGYMRFKPYQKRSMKQAKVHPLKLLVQFGEFNVETLAVGEEKEVHSVLRVGDMIEIDRGTRYSIQNAIDKVSVLMCIRS
Regarding B2, the binding result in assay [1] is “binds”.

B3: ^35S-Met-labelled full-length CENP-C (IVTT) (protein, UniProt Q9VHP9 1-1411)
chain: MSKPQNNDTLELDDILSQPVKDKERFAAFMMRKLAENKPAQNDNLFGNFKLDFDLDFEVPLIKKSQAKPKSKLPEVQPLGELVSKNSAATEKVNEPPVDQAPNENVPPRRSPTLSPNNRRSMRRSGNVPGSDKLRRHAIRRRSRSCGRQLLPEFEETVNLTRSISSPVNFLPEISSTPCTEKQKEEVAKNTTRVETDKPAEKPMELSQEPEPENPLQTKVTSPARNPILAAEIEQICKERQSSFHKNVLQLDYSGRAPYSRPPTPSSPSVAGLRRTYTMEKGPAPGQLLLSPSHRYDTPSKMPVVKAKRFNQELMVPDTPERQSHDPAWQSEPQPEFVVPETQPQDLGELVQTLSRSAISPIVVINTSNSNRSVRRDAVAMKSVPTSPVTALSSPPIAPSPRRSAAASPQKSIAQLPRVEENMDAIMTDDESDEHPSTVPLNLAPSGGNTTRQRRLRSSNRARATIESQESSMRLLNLHKSVNAKKSKPRKTAIPLNKAPSAPINGEQFARELTRMSNYEILDLRKRNSLNEIYPLNGHRNHRSEKLILEEEIQRELLRRNLMDEAEGLPKQQSSDDSNEDYIPVPPKTQSLRTKSNDRSQGRGRPRSTRRDLPMTTELVNYLGLSQTLETRRKSSKDGKRCLYTKGSSDHEDNDSLSPVKLPRLSKSIQIVPPPPVSLRYSQSLQNLPCSGKFDFDNVVMAAPPDFHDSVNSDAIEIAPPPPEYVVNTRGRSTSGRKSNKNDLVLPPPGYEGGQEEEHDERPSQPRCTAKELQQSTQNGRRAMENELVPPPIEYVEEENRNNEQSRRSTKNGNLVDRNTHNAVEYCEPPEPPEYDDSDHGQASILRRSGKKLQHSKQSVQKSNKEQIIAPSYENNEDYDSDEEPIYNEEYGKEESQNKNVTRRKSDKDEMASHTLECIEGPDPNWNSSCNKQNRNHQNASKSKENDKLANRSSKSQKLSNPRQNAVGTEKSVALSNRGEECTEKSSDVMESLRVNTPTPPIDQNSDDVPSRNPSPSRTLLSDDVPSTSRAALEFLQRSQNMSKSRPPDESSADVVFKKPLAPAPRAKSKKGKSEVDKLKLAKMPVEAEELNTTGIRRSKRGQVPLQMSWCHTMDPSKFNFMSGFIEPRSKNSKTKKGNLSKAKKASATKPKPTVEKNLPDNRGPLCSSTPRISEKLPGAIPHSESLGLSTLTWEETEVQAEAEKVPKKRGRPKKAVGGVQTDTEAEPEPEPEPMISSVAPLTSDQEEPDVPDEQAPYTEAALGPVVFSTPLRDEQEEASTKLMQWLRGVGDAPPSASMSDENASVSSANELIFCQVDGIDYAFYNTKEKAMLGYMRFKPYQKRSMKQAKVHPLKLLVQFGEFNVETLAVGEEKEVHSVLRVGDMIEIDRGTRYSIQNAIDKVSVLMCIRS
modifications: 35S-methionine labelled
Regarding B3, the binding result in assay [2] was “no binding”.
